Taken from: PubChem BioAssay AID602196 (INSERM, 2012)

Purpose: 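Genes whose knock-down alters cisplatin killing of lung cancer cells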
Cell system: human A549 lung cancer cells
Reagent: siRNA pair against human genes
Duration: 48 h transfection before cisplatin; time from cisplatin to read-out not stated
Conditions: cisplatin at a dose killing half of control-siRNA cells; exact dose and duration not given
Read-out: 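Cisplatin cell death as a shift from the 50% death seen with control siRNA; siRNAs toxic or growth-blocking alone scored 0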
Reading the numbers: two-siRNA summed score (-2 to +2): higher = both siRNAs protect from cisplatin killing; -2 means both sensitise; mean protection from cisplatin (shift in death) and protection from cisplatin (shift in death), siRNA C and protection from cisplatin (shift in death), siRNA D: higher = protection from cisplatin killing
Hit rule: 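siRNAs harmful alone (LDH or WST-1) get 0; others get +1 for less and -1 for more cisplatin killing; genes are active when the two siRNAs give the same sign, summing to ±2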
Meaning of the calls: active = both siRNAs shift cisplatin killing the same way; inactive = no consistent shift, or siRNA harmful alone
This is an unselected part of about 23,000 reagents tested. 455 of them (2%) were called active. 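Active includes both protection and sensitisation; some change values fall well beyond the stated -50 to +50 range.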 The numbers tell different reagents against one gene apart. The record does not give: the amount of reagent.

target	reagent no.	two-siRNA summed score (-2 to +2)	mean protection from cisplatin (shift in death) (%)	protection from cisplatin (shift in death), siRNA C (%)	protection from cisplatin (shift in death), siRNA D (%)	Call
ISX (intestine specific homeobox)	1	0	-1.2	1.5	-3.8	inactive
TNK2 (tyrosine kinase non receptor 2)	1	0	12.1	25.6	-1.4	inactive
LOC401954	1	0	3.4	19.9	-13	inactive
PSMD13 (proteasome 26S subunit, non-ATPase 13)	1	2	22.7	15.8	29.6	active
FPR3 (formyl peptide receptor 3)	1	1	7.4	14.2	0.5	inactive
RCHY1 (ring finger and CHY zinc finger domain containing 1)	1	0	5.2	7.3	3.1	inactive
TMEM86A (transmembrane protein 86A)	1	0	7.7	1.2	14.2	inactive
LOC441085	1	0	4.3	0.4	8.1	inactive
PLEKHG4 (pleckstrin homology and RhoGEF domain containing G4)	1	0	0.3	-11	11.5	inactive
MEAK7 (MTOR associated protein MEAK7)	1	0	7.1	18	-3.8	inactive
THAP1 (THAP domain containing 1)	1	1	15.3	24.1	6.6	inactive
LOC439988	1	-1	-4.8	6.3	-15.9	inactive
NUDT14 (nudix hydrolase 14)	1	0	-8	-12.1	-3.9	inactive
CYP19A1 (cytochrome P450 family 19 subfamily A member 1)	1	-1	-8.7	8.8	-26.2	inactive
SC5D (sterol-C5-desaturase)	1	0	0.6	17	-15.7	inactive
PTBP3 (polypyrimidine tract binding protein 3)	1	0	7.8	6.6	9	inactive
MAPK1 (mitogen-activated protein kinase 1)	1	0	1	16.8	-14.9	inactive
LOC283432	1	0	1.7	-3.9	7.3	inactive
MUC20 (mucin 20, cell surface associated)	1	0	-7.4	-7.6	-7.2	inactive
ZFP28 (ZFP28 zinc finger protein)	1	1	14.4	19.3	9.4	inactive
TCEANC2	1	0	11.5	10.1	12.8	inactive
OR52I1 (olfactory receptor family 52 subfamily I member 1)	1	0	14.8	-8.5	38.2	inactive
RPL23AP32 (ribosomal protein L23a pseudogene 32)	1	-1	-10.4	-18.9	-1.9	inactive
GJB6 (gap junction protein beta 6)	1	0	1.7	-8	11.3	inactive
FKBP7 (FKBP prolyl isomerase 7)	1	0	-13	-10.7	-15.3	inactive
OR6M1 (olfactory receptor family 6 subfamily M member 1)	1	0	3.8	8.2	-0.7	inactive
LOC441296	1	0	-1.6	-0.4	-2.9	inactive
LRRC70 (leucine rich repeat containing 70)	1	0	0.1	-4.5	4.7	inactive
TREML2 (triggering receptor expressed on myeloid cells like 2)	1	0	1.8	1.6	2	inactive
TMEM237 (transmembrane protein 237)	1	1	8.1	-5.3	21.4	inactive
RAPGEF5 (Rap guanine nucleotide exchange factor 5)	1	0	2.1	0.1	4.1	inactive
TNFRSF14-AS1 (TNFRSF14 antisense RNA 1)	1	0	-2.5	-6.5	1.5	inactive
LCAT (lecithin-cholesterol acyltransferase)	1	0	-16.8	-19.6	-13.9	inactive
TBC1D21 (TBC1 domain family member 21)	1	0	1.1	-6.7	9	inactive
PADI6 (peptidyl arginine deiminase 6)	1	1	15.8	16.6	15.1	inactive
ZNF791 (zinc finger protein 791)	1	0	16.2	27.7	4.8	inactive
RNASE6 (ribonuclease A family member 6)	1	0	0.5	-0.2	1.1	inactive
VSTM2L (V-set and transmembrane domain containing 2 like)	1	-1	-8	-26.3	10.3	inactive
LRRC4C (leucine rich repeat containing 4C)	1	-1	-8.2	-35.4	19	inactive
ATOSB (atos homolog B)	1	0	-11.3	-20.4	-2.2	inactive

Active calls, among the entries above:
target	reagent no.	two-siRNA summed score (-2 to +2)	mean protection from cisplatin (shift in death) (%)	protection from cisplatin (shift in death), siRNA C (%)	protection from cisplatin (shift in death), siRNA D (%)	Call
PSMD13 (proteasome 26S subunit, non-ATPase 13)	1	2	22.7	15.8	29.6	active

Continued:
target	reagent no.	two-siRNA summed score (-2 to +2)	mean protection from cisplatin (shift in death) (%)	protection from cisplatin (shift in death), siRNA C (%)	protection from cisplatin (shift in death), siRNA D (%)	Call
LOC440042	1	1	12.9	12	13.8	inactive
IL17B (interleukin 17B)	1	-1	-25.9	-21.4	-30.5	inactive
SAC3D1 (SAC3 domain containing 1)	1	0	0	-1.1	1.1	inactive
FLJ35036	1	0	11.6	10.9	12.3	inactive
TNFRSF6B (TNF receptor superfamily member 6b)	1	-1	-10.1	-5.2	-15.1	inactive
NOMO2 (NODAL modulator 2)	1	0	11.1	7.7	14.5	inactive
LOC441380	1	1	8.7	2.4	15	inactive
KDELR3 (KDEL endoplasmic reticulum protein retention receptor 3)	1	-1	-23.4	-31	-15.8	inactive
LOC401500	1	0	11	13.6	8.3	inactive
SEC61A2 (SEC61 translocon subunit alpha 2)	1	0	2.6	-7	12.2	inactive
LOC442403	1	0	9.3	8.3	10.4	inactive
CD14 (CD14 molecule)	1	0	-15.4	13.2	-44	inactive
DHRS4L2 (dehydrogenase/reductase 4 like 2)	1	-1	-1	17.5	-19.6	inactive
ELP3 (elongator acetyltransferase complex subunit 3)	1	0	10.3	8.5	12.1	inactive
RBCK1 (RANBP2-type and C3HC4-type zinc finger containing 1)	1	0	-28.1	-34.7	-21.6	inactive
KRT31 (keratin 31)	1	0	4.4	6.2	2.6	inactive
KIR2DL5A	1	0	18.4	25.4	11.5	inactive
MFSD8 (major facilitator superfamily domain containing 8)	1	0	0.6	-8.9	10.1	inactive
USP33 (ubiquitin specific peptidase 33)	1	0	-22.1	-43	-1.3	inactive
LOC123346	1	1	20.8	22.1	19.4	inactive
ATP7A (ATPase copper transporting alpha)	1	0	-3.2	-3.5	-2.8	inactive
GPN1 (GPN-loop GTPase 1)	1	1	6.6	12.7	0.5	inactive
BLVRB (biliverdin reductase B)	1	0	5.9	10.1	1.7	inactive
BBS2 (Bardet-Biedl syndrome 2)	1	0	-0.5	10.3	-11.3	inactive
VASH1 (vasohibin 1)	1	0	9	23.9	-5.9	inactive
KCNJ16 (potassium inwardly rectifying channel subfamily J member 16)	1	0	4.5	-5.7	14.6	inactive
IRX6 (iroquois homeobox 6)	1	1	13.1	3	23.3	inactive
HAMP (hepcidin antimicrobial peptide)	1	0	0.6	3.1	-2	inactive
LOC392425	1	1	5.3	11.3	-0.8	inactive
MRPL50 (mitochondrial ribosomal protein L50)	1	0	9.7	3.7	15.7	inactive
BPIFA3 (BPI fold containing family A member 3)	1	0	2.8	12.7	-7.1	inactive
BPIFA3 (BPI fold containing family A member 3)	2	0	5.9	-1.4	13.2	inactive
LOC389039	1	0	22.2	15.1	29.3	inactive
